From paper doi:10.1101/2022.04.27.489801
Results are given in words; binding and its absence hold for the method and conditions named. Binding seen in cells or lysates may run through a third protein. Some results given as binding are weak or reduced against the parent protein; the word gives no strength.

The chains behind the UniProt entries cited, without tags or fusion partners.
UniProt Q61188: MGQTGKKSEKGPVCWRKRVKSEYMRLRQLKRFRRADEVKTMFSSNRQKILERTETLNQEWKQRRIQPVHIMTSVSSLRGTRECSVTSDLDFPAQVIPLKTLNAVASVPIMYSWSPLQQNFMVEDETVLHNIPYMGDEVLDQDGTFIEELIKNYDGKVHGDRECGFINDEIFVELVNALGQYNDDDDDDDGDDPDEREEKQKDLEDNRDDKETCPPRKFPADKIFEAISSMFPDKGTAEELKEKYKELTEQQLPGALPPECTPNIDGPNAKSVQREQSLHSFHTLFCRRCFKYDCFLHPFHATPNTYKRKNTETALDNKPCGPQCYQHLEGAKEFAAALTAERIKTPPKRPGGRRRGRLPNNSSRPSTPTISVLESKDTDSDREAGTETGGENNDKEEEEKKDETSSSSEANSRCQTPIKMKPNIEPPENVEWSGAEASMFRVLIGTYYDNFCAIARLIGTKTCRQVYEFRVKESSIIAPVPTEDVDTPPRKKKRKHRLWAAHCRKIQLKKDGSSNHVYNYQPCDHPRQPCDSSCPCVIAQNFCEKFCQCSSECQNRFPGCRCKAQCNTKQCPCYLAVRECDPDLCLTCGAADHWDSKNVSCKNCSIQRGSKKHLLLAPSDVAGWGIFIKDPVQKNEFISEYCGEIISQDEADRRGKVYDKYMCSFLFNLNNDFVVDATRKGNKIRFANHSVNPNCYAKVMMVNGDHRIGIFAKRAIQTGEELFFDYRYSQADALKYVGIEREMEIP
UniProt B2RWS6: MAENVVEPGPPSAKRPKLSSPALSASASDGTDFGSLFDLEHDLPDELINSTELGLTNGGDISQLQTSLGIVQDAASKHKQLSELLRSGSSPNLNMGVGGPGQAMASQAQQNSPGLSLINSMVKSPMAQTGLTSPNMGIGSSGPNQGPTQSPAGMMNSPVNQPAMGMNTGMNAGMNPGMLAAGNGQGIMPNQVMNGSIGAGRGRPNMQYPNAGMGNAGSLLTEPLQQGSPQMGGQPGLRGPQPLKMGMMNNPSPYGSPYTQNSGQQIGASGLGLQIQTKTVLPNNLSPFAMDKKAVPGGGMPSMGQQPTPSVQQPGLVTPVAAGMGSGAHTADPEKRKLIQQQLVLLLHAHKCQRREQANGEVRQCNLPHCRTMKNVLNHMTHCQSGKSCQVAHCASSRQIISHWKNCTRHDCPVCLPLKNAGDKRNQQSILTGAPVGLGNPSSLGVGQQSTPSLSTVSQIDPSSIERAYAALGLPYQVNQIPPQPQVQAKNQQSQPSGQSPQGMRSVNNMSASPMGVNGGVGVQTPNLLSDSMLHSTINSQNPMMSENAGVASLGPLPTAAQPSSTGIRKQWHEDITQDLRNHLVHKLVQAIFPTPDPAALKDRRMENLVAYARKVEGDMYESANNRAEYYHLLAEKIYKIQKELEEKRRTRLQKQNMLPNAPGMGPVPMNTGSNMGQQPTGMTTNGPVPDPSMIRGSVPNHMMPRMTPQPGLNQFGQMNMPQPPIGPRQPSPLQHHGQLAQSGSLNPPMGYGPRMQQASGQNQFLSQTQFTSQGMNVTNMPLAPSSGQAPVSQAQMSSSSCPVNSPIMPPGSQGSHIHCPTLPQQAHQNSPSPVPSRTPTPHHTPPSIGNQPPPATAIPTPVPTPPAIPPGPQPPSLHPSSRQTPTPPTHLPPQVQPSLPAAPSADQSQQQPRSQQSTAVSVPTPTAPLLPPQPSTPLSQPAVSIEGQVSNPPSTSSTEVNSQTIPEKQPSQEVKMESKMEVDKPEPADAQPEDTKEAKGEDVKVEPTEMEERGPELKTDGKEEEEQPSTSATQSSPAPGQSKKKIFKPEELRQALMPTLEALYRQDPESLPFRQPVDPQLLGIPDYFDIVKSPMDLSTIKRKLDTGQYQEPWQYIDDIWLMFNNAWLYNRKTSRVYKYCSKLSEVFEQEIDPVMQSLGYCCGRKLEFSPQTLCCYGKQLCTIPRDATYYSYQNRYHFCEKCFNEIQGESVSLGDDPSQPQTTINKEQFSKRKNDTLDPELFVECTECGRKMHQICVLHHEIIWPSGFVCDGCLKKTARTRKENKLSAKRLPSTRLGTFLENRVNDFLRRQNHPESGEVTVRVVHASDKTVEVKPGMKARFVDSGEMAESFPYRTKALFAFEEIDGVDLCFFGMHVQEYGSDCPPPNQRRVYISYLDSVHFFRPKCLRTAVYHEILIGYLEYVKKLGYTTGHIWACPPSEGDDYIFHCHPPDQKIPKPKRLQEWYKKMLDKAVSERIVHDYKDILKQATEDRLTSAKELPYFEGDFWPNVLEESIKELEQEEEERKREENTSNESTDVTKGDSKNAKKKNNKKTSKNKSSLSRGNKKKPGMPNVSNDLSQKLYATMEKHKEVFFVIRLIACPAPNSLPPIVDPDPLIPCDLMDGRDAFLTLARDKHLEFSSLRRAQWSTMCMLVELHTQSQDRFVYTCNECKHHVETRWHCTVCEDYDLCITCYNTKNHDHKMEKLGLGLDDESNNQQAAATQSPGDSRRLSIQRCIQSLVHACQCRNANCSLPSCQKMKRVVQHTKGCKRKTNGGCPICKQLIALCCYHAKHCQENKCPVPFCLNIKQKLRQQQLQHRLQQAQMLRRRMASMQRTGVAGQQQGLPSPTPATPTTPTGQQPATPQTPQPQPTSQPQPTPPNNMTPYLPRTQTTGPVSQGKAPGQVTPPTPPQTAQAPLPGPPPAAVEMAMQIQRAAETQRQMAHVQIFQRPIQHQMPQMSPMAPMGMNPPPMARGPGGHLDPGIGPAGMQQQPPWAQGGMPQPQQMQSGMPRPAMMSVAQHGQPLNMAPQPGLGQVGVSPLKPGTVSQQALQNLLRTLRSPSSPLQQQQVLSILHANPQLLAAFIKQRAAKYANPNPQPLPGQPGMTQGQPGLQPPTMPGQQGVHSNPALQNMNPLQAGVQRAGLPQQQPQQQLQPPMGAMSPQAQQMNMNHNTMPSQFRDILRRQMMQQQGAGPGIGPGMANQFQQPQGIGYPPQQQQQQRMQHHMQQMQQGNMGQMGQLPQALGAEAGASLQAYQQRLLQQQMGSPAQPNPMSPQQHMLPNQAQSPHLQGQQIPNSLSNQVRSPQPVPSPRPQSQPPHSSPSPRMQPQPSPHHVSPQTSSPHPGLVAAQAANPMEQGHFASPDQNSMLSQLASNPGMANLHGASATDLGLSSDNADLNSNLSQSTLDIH
UniProt Q8BX09: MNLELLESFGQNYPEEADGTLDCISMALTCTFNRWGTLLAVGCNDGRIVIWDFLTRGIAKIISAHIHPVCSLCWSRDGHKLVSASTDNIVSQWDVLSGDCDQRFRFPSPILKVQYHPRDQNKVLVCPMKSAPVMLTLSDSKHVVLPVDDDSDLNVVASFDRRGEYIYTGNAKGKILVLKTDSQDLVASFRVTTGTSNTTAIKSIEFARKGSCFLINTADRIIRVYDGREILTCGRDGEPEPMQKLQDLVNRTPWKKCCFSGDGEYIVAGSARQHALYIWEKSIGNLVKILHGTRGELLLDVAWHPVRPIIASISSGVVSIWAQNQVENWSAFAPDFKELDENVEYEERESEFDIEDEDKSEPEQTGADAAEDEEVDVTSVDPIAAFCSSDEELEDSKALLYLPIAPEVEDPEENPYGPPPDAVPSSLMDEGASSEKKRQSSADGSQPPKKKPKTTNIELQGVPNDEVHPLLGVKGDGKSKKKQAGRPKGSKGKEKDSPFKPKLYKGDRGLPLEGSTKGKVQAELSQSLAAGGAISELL
UniProt Q80U70: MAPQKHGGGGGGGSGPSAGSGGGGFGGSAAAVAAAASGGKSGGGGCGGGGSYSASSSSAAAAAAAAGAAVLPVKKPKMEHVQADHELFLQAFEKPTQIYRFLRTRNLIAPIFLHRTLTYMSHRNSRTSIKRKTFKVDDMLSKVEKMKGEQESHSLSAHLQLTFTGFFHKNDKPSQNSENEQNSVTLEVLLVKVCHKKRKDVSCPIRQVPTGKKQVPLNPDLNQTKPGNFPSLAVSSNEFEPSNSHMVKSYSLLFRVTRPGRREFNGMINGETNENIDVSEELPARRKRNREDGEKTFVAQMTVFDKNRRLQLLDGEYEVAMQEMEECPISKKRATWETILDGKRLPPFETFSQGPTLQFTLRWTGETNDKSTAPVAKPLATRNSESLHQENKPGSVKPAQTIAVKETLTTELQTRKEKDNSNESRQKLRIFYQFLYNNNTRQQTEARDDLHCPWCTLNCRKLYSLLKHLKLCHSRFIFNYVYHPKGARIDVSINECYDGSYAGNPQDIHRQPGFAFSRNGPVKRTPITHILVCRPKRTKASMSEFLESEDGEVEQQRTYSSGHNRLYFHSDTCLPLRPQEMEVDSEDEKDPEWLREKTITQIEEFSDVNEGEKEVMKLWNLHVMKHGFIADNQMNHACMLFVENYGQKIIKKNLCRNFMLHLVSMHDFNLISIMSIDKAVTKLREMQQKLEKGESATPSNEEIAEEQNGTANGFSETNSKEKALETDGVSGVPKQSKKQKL

T1: Snip1 (mouse (endogenous in NPCs)) (UniProt Q8BIZ6)
T1 sequence: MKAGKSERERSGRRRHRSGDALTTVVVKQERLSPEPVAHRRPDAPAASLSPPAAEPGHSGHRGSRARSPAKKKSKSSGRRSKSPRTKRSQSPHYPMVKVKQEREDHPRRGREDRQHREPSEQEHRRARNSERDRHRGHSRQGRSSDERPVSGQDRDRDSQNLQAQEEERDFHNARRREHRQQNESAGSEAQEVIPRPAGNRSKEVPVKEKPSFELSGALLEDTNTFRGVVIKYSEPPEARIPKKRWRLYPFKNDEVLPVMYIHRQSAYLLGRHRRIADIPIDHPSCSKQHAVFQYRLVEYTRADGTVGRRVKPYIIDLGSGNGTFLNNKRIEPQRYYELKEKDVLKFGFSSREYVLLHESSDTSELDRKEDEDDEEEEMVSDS

T2: Jarid2 (mouse (endogenous in NPCs)) (UniProt Q62315)
T2 sequence: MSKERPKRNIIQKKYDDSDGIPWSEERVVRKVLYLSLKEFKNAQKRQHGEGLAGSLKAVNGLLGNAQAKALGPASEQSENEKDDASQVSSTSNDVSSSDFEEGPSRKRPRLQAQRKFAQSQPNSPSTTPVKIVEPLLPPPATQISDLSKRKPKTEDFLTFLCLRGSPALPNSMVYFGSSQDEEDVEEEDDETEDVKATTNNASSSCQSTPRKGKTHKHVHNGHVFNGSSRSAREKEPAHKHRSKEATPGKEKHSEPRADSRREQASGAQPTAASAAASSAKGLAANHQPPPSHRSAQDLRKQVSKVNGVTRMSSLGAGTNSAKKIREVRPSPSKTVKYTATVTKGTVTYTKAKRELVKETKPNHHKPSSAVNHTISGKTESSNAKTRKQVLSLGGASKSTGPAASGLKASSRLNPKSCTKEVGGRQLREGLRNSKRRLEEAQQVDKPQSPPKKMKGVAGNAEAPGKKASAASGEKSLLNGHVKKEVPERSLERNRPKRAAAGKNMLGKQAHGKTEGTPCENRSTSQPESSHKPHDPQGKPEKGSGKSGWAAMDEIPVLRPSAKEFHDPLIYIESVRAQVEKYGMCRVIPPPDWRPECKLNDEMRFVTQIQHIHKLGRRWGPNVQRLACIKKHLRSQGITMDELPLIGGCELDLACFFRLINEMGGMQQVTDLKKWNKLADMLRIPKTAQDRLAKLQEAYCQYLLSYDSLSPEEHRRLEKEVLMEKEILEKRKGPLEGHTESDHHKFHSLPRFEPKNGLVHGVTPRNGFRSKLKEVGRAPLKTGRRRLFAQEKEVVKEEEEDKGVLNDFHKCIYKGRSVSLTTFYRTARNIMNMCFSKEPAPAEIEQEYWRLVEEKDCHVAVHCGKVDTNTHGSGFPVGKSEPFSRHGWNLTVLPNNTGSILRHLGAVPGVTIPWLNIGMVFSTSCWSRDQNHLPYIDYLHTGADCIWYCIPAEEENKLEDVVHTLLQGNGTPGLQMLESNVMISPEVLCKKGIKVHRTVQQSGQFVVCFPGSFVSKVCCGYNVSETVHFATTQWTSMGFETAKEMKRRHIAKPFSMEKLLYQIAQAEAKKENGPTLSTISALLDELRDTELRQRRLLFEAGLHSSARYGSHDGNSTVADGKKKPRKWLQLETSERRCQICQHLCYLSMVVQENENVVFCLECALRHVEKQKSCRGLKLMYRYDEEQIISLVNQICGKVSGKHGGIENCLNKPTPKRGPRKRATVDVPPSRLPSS


How the values were obtained:
Test in all cases: co-IP
[1] = molecular target: T1, Snip1 (mouse (endogenous in NPCs))
[2] = molecular target: Ezh2 (mouse (endogenous in NPCs)) (UniProt Q61188)
[3] = molecular target: T2, Jarid2 (mouse (endogenous in NPCs))
[4] = molecular target: Cbp (mouse (endogenous in NPCs)) (UniProt P45481)
[5] = molecular target: p300 (mouse (endogenous in NPCs)) (UniProt B2RWS6)

Molecule	binding [1]	binding [2]	binding [3]	binding [4]	binding [5]
Rbbp5 (from UniProt Q8BX09 1-538)	no binding	no binding	no binding	–	–
Ezh2 (from UniProt Q61188 1-746)	binds	–	–	–	–
Suz12 (from UniProt Q80U70 1-741)	binds	–	–	–	–
Jarid2 (protein, UniProt Q62315 1-1234) MSKERPKRNIIQKKYDDSDGIPWSEERVVRKVLYLSLKEFKNAQKRQHGEGLAGSLKAVNGLLGNAQAKALGPASEQSENEKDDASQVSSTSNDVSSSDFEEGPSRKRPRLQAQRKFAQSQPNSPSTTPVKIVEPLLPPPATQISDLSKRKPKTEDFLTFLCLRGSPALPNSMVYFGSSQDEEDVEEEDDETEDVKATTNNASSSCQSTPRKGKTHKHVHNGHVFNGSSRSAREKEPAHKHRSKEATPGKEKHSEPRADSRREQASGAQPTAASAAASSAKGLAANHQPPPSHRSAQDLRKQVSKVNGVTRMSSLGAGTNSAKKIREVRPSPSKTVKYTATVTKGTVTYTKAKRELVKETKPNHHKPSSAVNHTISGKTESSNAKTRKQVLSLGGASKSTGPAASGLKASSRLNPKSCTKEVGGRQLREGLRNSKRRLEEAQQVDKPQSPPKKMKGVAGNAEAPGKKASAASGEKSLLNGHVKKEVPERSLERNRPKRAAAGKNMLGKQAHGKTEGTPCENRSTSQPESSHKPHDPQGKPEKGSGKSGWAAMDEIPVLRPSAKEFHDPLIYIESVRAQVEKYGMCRVIPPPDWRPECKLNDEMRFVTQIQHIHKLGRRWGPNVQRLACIKKHLRSQGITMDELPLIGGCELDLACFFRLINEMGGMQQVTDLKKWNKLADMLRIPKTAQDRLAKLQEAYCQYLLSYDSLSPEEHRRLEKEVLMEKEILEKRKGPLEGHTESDHHKFHSLPRFEPKNGLVHGVTPRNGFRSKLKEVGRAPLKTGRRRLFAQEKEVVKEEEEDKGVLNDFHKCIYKGRSVSLTTFYRTARNIMNMCFSKEPAPAEIEQEYWRLVEEKDCHVAVHCGKVDTNTHGSGFPVGKSEPFSRHGWNLTVLPNNTGSILRHLGAVPGVTIPWLNIGMVFSTSCWSRDQNHLPYIDYLHTGADCIWYCIPAEEENKLEDVVHTLLQGNGTPGLQMLESNVMISPEVLCKKGIKVHRTVQQSGQFVVCFPGSFVSKVCCGYNVSETVHFATTQWTSMGFETAKEMKRRHIAKPFSMEKLLYQIAQAEAKKENGPTLSTISALLDELRDTELRQRRLLFEAGLHSSARYGSHDGNSTVADGKKKPRKWLQLETSERRCQICQHLCYLSMVVQENENVVFCLECALRHVEKQKSCRGLKLMYRYDEEQIISLVNQICGKVSGKHGGIENCLNKPTPKRGPRKRATVDVPPSRLPSS	binds	–	–	–	–
Snip1 (protein, UniProt Q8BIZ6 1-383) MKAGKSERERSGRRRHRSGDALTTVVVKQERLSPEPVAHRRPDAPAASLSPPAAEPGHSGHRGSRARSPAKKKSKSSGRRSKSPRTKRSQSPHYPMVKVKQEREDHPRRGREDRQHREPSEQEHRRARNSERDRHRGHSRQGRSSDERPVSGQDRDRDSQNLQAQEEERDFHNARRREHRQQNESAGSEAQEVIPRPAGNRSKEVPVKEKPSFELSGALLEDTNTFRGVVIKYSEPPEARIPKKRWRLYPFKNDEVLPVMYIHRQSAYLLGRHRRIADIPIDHPSCSKQHAVFQYRLVEYTRADGTVGRRVKPYIIDLGSGNGTFLNNKRIEPQRYYELKEKDVLKFGFSSREYVLLHESSDTSELDRKEDEDDEEEEMVSDS	–	binds	binds	no binding	no binding
